# From paper PMC2265061, “Compound Cytotoxicity Profiling Using Quantitative High-Throughput Screening” (Environmental Health Perspectives, 2007)
# How the values were obtained:
# Test in all cases: cells
# BJ = conditions: Homo sapiens, 40 h
# Protocol: (§1) We measured cell viability using a luciferase-coupled ATP quantitation assay (CellTiter-Glo; Promega, Madison, WI). In this assay, luminescent signal is proportional to amount of ATP and thus to the number of metabolically competent cells; cell injury and death result in a dramatic decrease in intracellular ATP levels ([Crouch et al. 1993]). Cells were dispensed at 1,000–2,000 cells/5 μL/well in tissue-culture treated 1,536-well white/solid bottom assay plates (Greiner Bio-One North America, Monroe, NC) using a Flying Reagent Dispenser (Aurora Discovery, Carlsbad, CA). All but Jurkat cells (which are grown in suspension) were incubated at 37°C for 5–6 hr to allow for cell attachment, followed by addition of compounds via pin tool (Kalypsys, San Diego, CA). […] At the end of the incubation period, 5 μL of CellTiter-Glo reagent was added, plates were incubated at room temperature for 30 min, and the luminescence intensity of each well was determined using a ViewLux plate reader (PerkinElmer, Shelton, CT).
# (§2) Compound formatting and qHTS were performed as described previously ([Inglese et al. 2006]).
# (§3) Analysis of compound concentration–response data was performed as previously described ([Inglese et al. 2006]). […] Concentration–response titration points for each compound were fitted to the Hill equation ([Hill 1910]), yielding concentrations of half-maximal inhibition (IC50) and maximal response (efficacy) values. […] Class 1 or 2 compounds were further divided into subclasses based on efficacy and quality of fit (R^2). Compounds with R^2 > 0.9 and high (> 80%) efficacy were designated as subclass a, and compounds with R^2 > 0.9 and low efficacies (30–80%) as subclass b. […] Compound activity correlations between different assays or experiments were assessed by calculating the Pearson correlation coefficient. Hierarchical clustering of compound activity patterns across different assays was performed within Spotfire DecisionSite 8.2 (Spotfire Inc., Cambridge, MA) using the correlation of log IC50 values as the similarity metric.
# H-4-II-E = conditions: Rattus norvegicus, H4IIE, 40 h
# Protocol: as §1, §2, §3
# HUV-EC-C = conditions: Homo sapiens, 40 h
# Protocol: as §1, §2, §3
# Jurkat = conditions: mean ± SD
# Protocol: as §1, §2, §3
# MRC-5 = conditions: Homo sapiens, MRC5, 40 h
# Protocol: as §1, §2, §3
# Mesangial = conditions: Homo sapiens, 40 h
# Protocol: as §1, §2, §3
# N2a = conditions: Mus musculus, 40 h
# Protocol: as §1, §2, §3
# SH-SY5Y = conditions: Homo sapiens, 40 h
# Protocol: as §1, §2, §3
# SK-N-SH = conditions: Homo sapiens, 40 h
# Protocol: as §1, §2, §3
# HEK293 = type: cell-based; conditions: Homo sapiens; HEK293, 40 hr, mean ± SD
# Protocol: as §1, §2
# (§4) Analysis of compound concentration–response data was performed as previously described ([Inglese et al. 2006]). […] Compound activity correlations between different assays or experiments were assessed by calculating the Pearson correlation coefficient. […]
# NIH 3T3 = type: cell-based; conditions: Mus musculus, NIH3T3; NIH 3T3, 40 hr, mean ± SD
# Protocol: as §1, §2, §4
compound,measurement,setting,value
CC/C(=C(\c1ccccc1)c1ccc(OCCN(C)C)cc1)c1ccccc1 [tamoxifen],IC50,BJ,79 ± 10 µM
same,IC50,H-4-II-E,63 ± 15 µM
same,IC50,HUV-EC-C,46 ± 5 µM
same,IC50,Jurkat; 40 hr,8 ± 1 µM
same,IC50,"Jurkat; Homo sapiens, 40 h",8.3 µM
same,IC50,MRC-5,68 ± 17 µM
same,IC50,Mesangial,79 ± 10 µM
same,IC50,N2a,72 ± 13 µM
same,IC50,SH-SY5Y,65 ± 15 µM
same,IC50,SK-N-SH,57 ± 13 µM
same,IC50,HEK293,79 ± 10 µM
same,IC50,NIH 3T3,79 ± 4 µM
